# Laboratory results from PubChem BioAssay AID1347076 (National Center for Advancing Translational Sciences (NCATS), 2019).
# Screen size: about 400,000 compounds; about 13,000 (3.2%) were called active. The inconclusive results got no clear call from the source; some entries with a clear call stand among them for comparison. Calls follow the shape of the dose curve; as a rule, active = well fitted cell-killing curve with a large enough effect; inconclusive = small, poorly fitted or top-dose-only effect, or effect the other way; inactive = flat fitted curve, though single readings scatter. Potencies of inconclusive entries are doubtful fits and often do not repeat.
# Assay: qHTS assay for MDR1-selective chemotherapeutics: Primary screen using the drug-selected MDR subline cells KB-V1; also: nearly all actives have a fitted effect of over 60% in size
# Conditions: KB-V1 MDR cells viability, CellTiter-Glo, 72 h; activity change, negative = cytotoxicity: at 46.1 µM (top of the series)
# Method in brief: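 Drug-selected KB-V1 cells, grown in DMEM lacking phenol red with 10% FBS, receive compound titrations; after three days at 37 degrees C, surviving cell ATP is quantified by CellTiter-Glo luminescence and responses normalized and curve-fitted.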
# % is scaled to controls: 0 for no effect and ±100 for the full control effect; potency is read from the fitted curve at half-maximal effect.
Structure (SMILES),Potency,"activity change, negative = cytotoxicity"
COc1ccc(S(=O)(=O)Nc2cccc3c2O[C@H](CN(C)Cc2ccc(Cl)c(Cl)c2)[C@@H](C)CN([C@H](C)CO)C3=O)cc1,inactive,–
CCN(CC)c1ccc(NC(=O)C2CCN(S(=O)(=O)c3cnc[nH]3)CC2)c(C)c1,"inconclusive: 10.3 µM [rising, partial curve, poor fit]",–
O=C(NCC(c1ccco1)N1CCc2ccccc21)c1ccccc1Br (stereo not given),"inconclusive: 7.31 µM [cytotoxic, partial curve]",–
CCOC(=O)c1cnc(-n2nc(C)cc2C)nc1NC1CCCC1,active: 5.17 µM,–
O=C(Nc1ncc(Cc2ccccc2)s1)c1cccs1,"inconclusive: 29.1 µM [cytotoxic, single point]",–
COc1ccc(C(=O)Nc2ncc(C)s2)cc1S(=O)(=O)N1CCOCC1,"inconclusive: 29.1 µM [cytotoxic, single point]",–
CCCCN1C(=O)N(c2nnc(C(C)(C)C)s2)C(O)C1c1ccc(C)cc1 (stereo not given),inactive,–
COC(=O)Cn1c(C)c(C(C)=O)c(C(C)=O)c1C,"inconclusive: 8.2 µM [rising, partial curve, poor fit]",–
COc1cc2c(c(OC)c1OC)-c1c(cc3c(c1OC)OCO3)C1OC2[C@@H](C)[C@H]1C (stereo not given in full),inactive,–
O=C(O)c1nn(-c2cccc(C(F)(F)F)c2)ccc1=O,"inconclusive: 1.3 µM [rising, full curve]",–
O=C(CN1C(=O)C(=O)N(Cc2ccccc2)C1=O)Nc1cc(Cl)cc(Cl)c1,"inconclusive: 29.1 µM [cytotoxic, single point]",–
COC(=O)c1cccc(NC(=O)CN2CCC(NC(=O)c3cc(OC)c(OC)c(OC)c3)CC2)c1,"inconclusive: 3.66 µM [cytotoxic, partial curve]",–
COc1ccc(CNC(=O)N[C@@H](Cc2c[nH]c3ccccc23)C(=O)O)cc1,"inconclusive: 29.1 µM [rising, single point]",–
CN(Cc1ccccc1)C(=O)CSc1nc(-c2ccc(F)cc2)cc(C(F)(F)F)n1,–,inconclusive: -11.3%
Cc1cccc(NC(=S)NCc2ccc3[nH]c4c(c3c2)CCCC4)c1,"inconclusive: 29.1 µM [cytotoxic, single point]",–
Cc1ccc2nc(N(CCCN(C)C)C(=O)c3ccc(S(=O)(=O)N(C)C)cc3)sc2c1,inactive,–
O=C(NCCc1ccccc1F)C1CC(=O)N(c2cccc(C(F)(F)F)c2)C1 (stereo not given),active: 13 µM,–
O=C1NC[C@H](CCCCN2C[C@H](Cc3ccc(O)cc3)N(CCC3CCCCC3)C(=O)C2=O)N(CCC2CCCCC2)C1=O,inactive,–

Structure (SMILES),Potency,"activity change, negative = cytotoxicity"
Cc1cc(Cl)ccc1OCC(=O)NCCOC(=O)Nc1sc(=S)n(C)c1C,"inconclusive: 29.1 µM [cytotoxic, single point]",–
CCN1CCN(C(CNS(=O)(=O)c2ccc(Cl)cc2)c2cccnc2)CC1 (stereo not given),"inconclusive: 18.4 µM [rising, partial curve, poor fit]",–
C=Cc1ccc(CSc2cc(C)nc3nc(C)nn23)cc1,"inconclusive: 18.4 µM [cytotoxic, single point]",–
CCCCN1C(=O)C(CC(=O)NCc2cccs2)CC(C(=O)N(CC)CC)=C1C (stereo not given),inactive,–
Cc1ccc(/C=C(\C#N)c2nc3ccccc3c(=O)[nH]2)cc1,"inconclusive: 11.6 µM [rising, partial curve, poor fit]",–
CCOc1ccccc1-n1c(SCC(N)=O)nnc1-c1ccc(O)cc1,"inconclusive: 35.5 µM [rising, single point]",–
CCC1(CC)Cc2ccccc2-c2nc(CN3CCOCC3)[nH]c(=O)c21,"inconclusive: 16.4 µM [cytotoxic, single point]",–
O=C(Nc1nnc(S(=O)(=O)N2CCc3ccccc32)s1)c1cccc(Cl)c1,"inconclusive: 16.4 µM [cytotoxic, single point]",–
O=C(Nc1ccc(-c2noc(CCc3ccccc3)n2)cc1)c1ccco1,"inconclusive: 13 µM [cytotoxic, partial curve]",–
COc1ccc(CCNc2c3ccccc3nc3ccccc23)cc1OC,"inconclusive: 16.4 µM [cytotoxic, partial curve, poor fit]",–
COc1ccc(F)cc1-c1cc(C(=O)N2CCc3ccccc3C2)[nH]n1,inactive,–
C=CCN(c1ccccc1OC)S(=O)(=O)c1cccc(C(=O)OCC(=O)c2c[nH]c3ccccc23)c1,active: 11.6 µM,–
CN(Cc1ccccc1)S(=O)(=O)c1ccc(C(=O)Nc2nnc(C3CC3)o2)cc1,"inconclusive: 8.2 µM [cytotoxic, partial curve]",–
COc1ccccc1N1CCN(C(=O)c2ccc3[nH]c4c(c3c2)CC(C)CC4)CC1 (stereo not given),active: 20.6 µM,–
COc1cc(CN2CCNC(=O)C2CC(=O)N(C)CCCN2CCOCC2)cc(OC)c1 (stereo not given),"inconclusive: 16.4 µM [rising, single point]",–
CCOc1ccc(CC(=O)Nc2c(C(=O)c3ccccc3)oc3ccc(OC)cc23)cc1OCC,inactive,–
COc1ccccc1/C=C(/NC(=O)c1ccccc1)C(=O)NCCCn1ccnc1,"inconclusive: 20.6 µM [rising, single point]",–

# Not a retest: entries from further up.
Structure (SMILES),Potency,"activity change, negative = cytotoxicity"
O=C(Nc1ccc(-c2noc(CCc3ccccc3)n2)cc1)c1ccco1,"inconclusive: 13 µM [cytotoxic, partial curve]",–
COc1ccc(CCNc2c3ccccc3nc3ccccc23)cc1OC,"inconclusive: 16.4 µM [cytotoxic, partial curve, poor fit]",–
COc1ccc(F)cc1-c1cc(C(=O)N2CCc3ccccc3C2)[nH]n1,inactive,–
C=CCN(c1ccccc1OC)S(=O)(=O)c1cccc(C(=O)OCC(=O)c2c[nH]c3ccccc23)c1,active: 11.6 µM,–
CN(Cc1ccccc1)S(=O)(=O)c1ccc(C(=O)Nc2nnc(C3CC3)o2)cc1,"inconclusive: 8.2 µM [cytotoxic, partial curve]",–
COc1ccccc1N1CCN(C(=O)c2ccc3[nH]c4c(c3c2)CC(C)CC4)CC1 (stereo not given),active: 20.6 µM,–
COc1cc(CN2CCNC(=O)C2CC(=O)N(C)CCCN2CCOCC2)cc(OC)c1 (stereo not given),"inconclusive: 16.4 µM [rising, single point]",–
CCOc1ccc(CC(=O)Nc2c(C(=O)c3ccccc3)oc3ccc(OC)cc23)cc1OCC,inactive,–
